Measured values as given in patent publication US20150011001.
Construct, isoform or probe ends are uncertain for at least one entry. Whether high values mean tight binding is not given here for every scale. Protein sequences can lack the tags named with them.

Molecular target: T1, human RNase H1 (Homo sapiens) (UniProt O60930)
T1 sequence (looked up, limits assumed): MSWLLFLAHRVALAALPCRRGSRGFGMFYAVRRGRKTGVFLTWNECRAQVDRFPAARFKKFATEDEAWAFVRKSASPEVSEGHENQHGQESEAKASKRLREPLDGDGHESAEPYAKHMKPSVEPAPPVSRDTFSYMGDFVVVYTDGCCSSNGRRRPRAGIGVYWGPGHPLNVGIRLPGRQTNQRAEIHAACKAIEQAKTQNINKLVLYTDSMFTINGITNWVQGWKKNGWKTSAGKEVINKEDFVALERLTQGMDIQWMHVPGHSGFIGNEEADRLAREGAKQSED
Assay: enzyme reaction in vitro
Conditions: 1 mM MgCl2, 37 C, purified recombinant protein, protein details: N-terminal His-tag, expressed in E. coli BL21(DE3), label: 5'-32P on RNA, DNA:RNA hybrid

“CTACGCTTTCCACGCACAGT [C10 2'-ara-fluoro]” gave an activity signal (ratio V0 modified/unmodified) (2'-ara-fluoro at position 10 of DNA strand) of 1.2.
With AGTTTAGGTCTCCGATCGTC [ISIS 366698] the activity signal (ratio V0 modified/unmodified) (2'-MOE at 1-5 and 16-20, tetrafluoroindole at 8) was 1.09.
Work on CTACGCTTTCCACGCACAGT [T7 S2U] yielded an activity signal (ratio V0 modified/unmodified) (2-thiouridine (S2T) at position 7 of DNA strand) of 0.5.
CTACGCTTTCCACGCACAGT [A12 4-Me-ben] gave an activity signal (ratio V0 modified/unmodified) (4-methylbenzoimidazole at position 12 of DNA strand) of 0.8.
Work on CTACGCTTTCCACGCACAGT [T7 2'-ara-fluoro] yielded an activity signal (ratio V0 modified/unmodified) (2'-ara-fluoro at position 7 of DNA strand, multiple turnover) of 1.1.
Sequence CTACGCTTTCCACGCACAGT [T8 2'-F] has an activity signal (ratio V0 modified/unmodified) (2'-fluorothymidine at position 8 of DNA strand) of 0.7.
In the case of CTACGCTTTCCACGCACAGT [A12 THF], the activity signal (ratio V0 modified/unmodified) (tetrahydrofuran at position 12 of DNA strand) is reported as 0.4.
CTACGCTTTCCACGCACAGT [T9 S2U] was tested, and the activity signal (ratio V0 modified/unmodified) (2-thiouridine (S2T) at position 9 of DNA strand) was 0.7.
For AGTTTAGGTCTCCGATCGTC [ISIS 366697], the activity signal (ratio V0 modified/unmodified) (2'-MOE at 1-5 and 16-20, tetrafluoroindole at 7) was 2.02.
CTACGCTTTCCACGCACAGT [T8 pseudo-U] was tested, and the activity signal (ratio V0 modified/unmodified) (deoxypseudouridine at position 8 of DNA strand) was 1.1.
CTACGCTTTCCACGCACAGT [C15 propyl] was tested, and the activity signal (ratio V0 modified/unmodified) (propyl linker replacing position 15 (as labelled) of DNA strand) was 0.5.
For CTACGCTTTCCACGCACAGT [T9 pseudo-U], the activity signal (ratio V0 modified/unmodified) (deoxypseudouridine at position 9 of DNA strand) was 1.2.
With AGTTTAGGTCTCCGATCGTC [ISIS 359471] the activity signal (ratio V0 modified/unmodified) (2'-MOE at 1-5 and 16-20, tetrafluoroindole at 15) was 0.88.
CTACGCTTTCCACGCACAGT [G14 THF] showed an activity signal (ratio V0 modified/unmodified) (tetrahydrofuran at position 14 of DNA strand) of 0.4.
For CTACGCTTTCCACGCACAGT [T8 2'-ara-fluoro], the activity signal (ratio V0 modified/unmodified) (2'-ara-fluoro at position 8 of DNA strand) was 1.1.
CTACGCTTTCCACGCACAGT [T9 4'-methyl] showed an activity signal (ratio V0 modified/unmodified) (4'-methylthymidine at position 9 of DNA strand) of 0.3.
CTACGCTTTCCACGCACAGT [T8 3'-methyl] showed an activity signal (ratio V0 modified/unmodified) (3'-methylthymidine at position 8 of DNA strand) of 0.8.
AGTTTAGGTCTCCGATCGTC [ISIS 359470] was tested, and the activity signal (ratio V0 modified/unmodified) (2'-MOE at 1-5 and 17-20, tetrafluoroindole at 16) was 1.69.
With CTACGCTTTCCACGCACAGT [T7 3'-methyl] the activity signal (ratio V0 modified/unmodified) (3'-methylthymidine at position 7 of DNA strand) was 0.8.
CTACGCTTTCCACGCACAGT [T8 2'-S-methyl] showed an activity signal (ratio V0 modified/unmodified) (2'-methylthiothymidine at position 8 of DNA strand) of 0.4.
For CTACGCTTTCCACGCACAGT [T7 pseudo-U], the activity signal (ratio V0 modified/unmodified) (deoxypseudouridine at position 7 of DNA strand) was 0.9.
With CTACGCTTTCCACGCACAGT [T7 2'-S-methyl] the activity signal (ratio V0 modified/unmodified) (2'-methylthiothymidine at position 7 of DNA strand) was 0.5.
For “CTACGCTTTCCACGCACAGT [C13 2'-ara-fluoro]”, the activity signal (ratio V0 modified/unmodified) (2'-ara-fluoro at position 13 of DNA strand) was 1.1.
CTACGCTTTCCACGCACAGT [T9 2'-S-methyl] was tested, and the activity signal (ratio V0 modified/unmodified) (2'-methylthiothymidine at position 9 of DNA strand) was 0.4.
CTACGCTTTCCACGCACAGT [C15 pentyl] showed an activity signal (ratio V0 modified/unmodified) (pentyl linker replacing position 15 (as labelled) of DNA strand) of 0.5.
CTACGCTTTCCACGCACAGT [C11 abasic] was tested, and the activity signal (ratio V0 modified/unmodified) (abasic at position 11 of DNA strand) was 0.5.
For CTACGCTTTCCACGCACAGT [C10 2,4-F-tolyl], the activity signal (ratio V0 modified/unmodified) (2,4-difluorotoluoyl at position 10 of DNA strand) was 0.9.
With CTACGCTTTCCACGCACAGT [T9 2'-ara-fluoro] the activity signal (ratio V0 modified/unmodified) (2'-ara-fluoro at position 9 of DNA strand) was 1.1.
Work on AGTTTAGGTCTCCGATCGTC [ISIS 366699] yielded an activity signal (ratio V0 modified/unmodified) (2'-MOE at 1-5 and 16-20, tetrafluoroindole at 17) of 1.06.
For CTACGCTTTCCACGCACAGT [C11 2,4-F-tolyl], the activity signal (ratio V0 modified/unmodified) (2,4-difluorotoluoyl at position 11 of DNA strand) was 1.1.
For AGTTTAGGTCTCCGATCGTC [ISIS 366701], the activity signal (ratio V0 modified/unmodified) (2'-MOE wings (printed as 1-4 and 16-20), tetrafluoroindole labelled C13 (printed x)) was 1.48.
With CTACGCTTTCCACGCACAGT [A12 butyl] the activity signal (ratio V0 modified/unmodified) (butyl linker replacing position 12 of DNA strand) was 0.5.
CTACGCTTTCCACGCACAGT [T7 2'-F] was tested, and the activity signal (ratio V0 modified/unmodified) (2'-fluorothymidine at position 7 of DNA strand) was 0.6.
In the case of AGTTTAGGTCTCCGATCGTC [ISIS 359473], the activity signal (ratio V0 modified/unmodified) (2'-MOE at 1-5 and 16-20, tetrafluoroindole at 6) is reported as 1.93.
With CTACGCTTTCCACGCACAGT [T9 3'-methyl] the activity signal (ratio V0 modified/unmodified) (3'-methylthymidine at position 9 of DNA strand) was 0.7.
In the case of CTACGCTTTCCACGCACAGT [T9 abasic], the activity signal (ratio V0 modified/unmodified) (abasic at position 9 of DNA strand) is reported as 0.6.
